{"sequences": {"note": "Sequences of proteins named here, by UniProt entry; tags and fusion partners are left off. A change or cut given only in a name is not applied to a line headed by its entry. Residues count along the entry.", "UniProt Q96T51": "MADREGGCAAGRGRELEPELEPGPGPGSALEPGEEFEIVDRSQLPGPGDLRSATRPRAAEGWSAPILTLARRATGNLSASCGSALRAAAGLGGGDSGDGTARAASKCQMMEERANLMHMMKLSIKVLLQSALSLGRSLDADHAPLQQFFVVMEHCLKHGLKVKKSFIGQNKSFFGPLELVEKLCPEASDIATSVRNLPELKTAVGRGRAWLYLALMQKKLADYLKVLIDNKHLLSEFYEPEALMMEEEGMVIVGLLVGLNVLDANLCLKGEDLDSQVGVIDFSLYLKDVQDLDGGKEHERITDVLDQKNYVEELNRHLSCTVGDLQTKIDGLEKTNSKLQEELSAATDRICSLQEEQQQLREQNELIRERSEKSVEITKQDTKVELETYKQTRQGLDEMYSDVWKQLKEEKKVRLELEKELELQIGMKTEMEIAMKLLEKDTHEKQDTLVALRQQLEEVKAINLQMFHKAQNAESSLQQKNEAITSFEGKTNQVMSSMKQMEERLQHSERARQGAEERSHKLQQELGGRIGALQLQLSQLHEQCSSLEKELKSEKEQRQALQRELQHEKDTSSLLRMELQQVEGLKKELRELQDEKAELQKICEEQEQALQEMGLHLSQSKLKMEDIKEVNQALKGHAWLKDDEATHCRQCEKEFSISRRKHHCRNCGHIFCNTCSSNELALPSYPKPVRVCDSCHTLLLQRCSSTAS", "UniProt O15541": "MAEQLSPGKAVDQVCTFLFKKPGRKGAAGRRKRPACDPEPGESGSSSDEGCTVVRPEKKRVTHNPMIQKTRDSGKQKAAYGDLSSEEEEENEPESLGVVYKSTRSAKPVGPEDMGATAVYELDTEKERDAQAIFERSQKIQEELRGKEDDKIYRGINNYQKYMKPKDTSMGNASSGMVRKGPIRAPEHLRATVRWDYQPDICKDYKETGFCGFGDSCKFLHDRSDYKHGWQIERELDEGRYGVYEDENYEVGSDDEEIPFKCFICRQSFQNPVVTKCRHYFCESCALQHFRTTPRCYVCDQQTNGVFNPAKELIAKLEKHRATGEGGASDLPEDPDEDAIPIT", "UniProt O76064, 285-309": "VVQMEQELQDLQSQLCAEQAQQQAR", "UniProt Q96S38": "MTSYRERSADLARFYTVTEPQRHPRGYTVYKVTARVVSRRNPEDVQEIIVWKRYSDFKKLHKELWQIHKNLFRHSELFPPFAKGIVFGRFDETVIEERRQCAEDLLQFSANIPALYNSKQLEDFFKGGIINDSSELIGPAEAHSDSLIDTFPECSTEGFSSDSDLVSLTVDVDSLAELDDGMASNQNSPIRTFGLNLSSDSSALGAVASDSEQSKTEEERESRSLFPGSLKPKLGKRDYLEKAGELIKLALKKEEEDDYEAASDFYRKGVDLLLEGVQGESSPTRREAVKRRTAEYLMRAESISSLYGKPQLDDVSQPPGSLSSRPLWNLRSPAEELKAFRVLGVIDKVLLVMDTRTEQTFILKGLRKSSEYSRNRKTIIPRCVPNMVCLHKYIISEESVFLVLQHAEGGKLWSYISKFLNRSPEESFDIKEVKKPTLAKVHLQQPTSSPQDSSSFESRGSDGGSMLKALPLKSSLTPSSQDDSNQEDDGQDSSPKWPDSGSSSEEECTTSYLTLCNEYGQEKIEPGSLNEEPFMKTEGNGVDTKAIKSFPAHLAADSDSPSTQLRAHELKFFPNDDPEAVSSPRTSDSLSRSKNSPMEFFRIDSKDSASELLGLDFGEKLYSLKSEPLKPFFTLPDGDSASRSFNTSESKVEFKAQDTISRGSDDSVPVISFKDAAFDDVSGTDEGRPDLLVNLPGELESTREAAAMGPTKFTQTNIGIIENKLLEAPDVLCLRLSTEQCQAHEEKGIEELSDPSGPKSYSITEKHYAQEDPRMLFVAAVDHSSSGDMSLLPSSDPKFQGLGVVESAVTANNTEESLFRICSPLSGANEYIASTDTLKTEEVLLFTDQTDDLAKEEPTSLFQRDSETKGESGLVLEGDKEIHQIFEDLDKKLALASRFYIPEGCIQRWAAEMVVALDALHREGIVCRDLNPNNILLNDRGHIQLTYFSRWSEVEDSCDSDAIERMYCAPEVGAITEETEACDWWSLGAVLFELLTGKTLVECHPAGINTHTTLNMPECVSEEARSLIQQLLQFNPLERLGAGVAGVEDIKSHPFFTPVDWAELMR", "UniProt P04844, 77-109": "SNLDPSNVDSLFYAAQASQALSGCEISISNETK", "UniProt O75116": "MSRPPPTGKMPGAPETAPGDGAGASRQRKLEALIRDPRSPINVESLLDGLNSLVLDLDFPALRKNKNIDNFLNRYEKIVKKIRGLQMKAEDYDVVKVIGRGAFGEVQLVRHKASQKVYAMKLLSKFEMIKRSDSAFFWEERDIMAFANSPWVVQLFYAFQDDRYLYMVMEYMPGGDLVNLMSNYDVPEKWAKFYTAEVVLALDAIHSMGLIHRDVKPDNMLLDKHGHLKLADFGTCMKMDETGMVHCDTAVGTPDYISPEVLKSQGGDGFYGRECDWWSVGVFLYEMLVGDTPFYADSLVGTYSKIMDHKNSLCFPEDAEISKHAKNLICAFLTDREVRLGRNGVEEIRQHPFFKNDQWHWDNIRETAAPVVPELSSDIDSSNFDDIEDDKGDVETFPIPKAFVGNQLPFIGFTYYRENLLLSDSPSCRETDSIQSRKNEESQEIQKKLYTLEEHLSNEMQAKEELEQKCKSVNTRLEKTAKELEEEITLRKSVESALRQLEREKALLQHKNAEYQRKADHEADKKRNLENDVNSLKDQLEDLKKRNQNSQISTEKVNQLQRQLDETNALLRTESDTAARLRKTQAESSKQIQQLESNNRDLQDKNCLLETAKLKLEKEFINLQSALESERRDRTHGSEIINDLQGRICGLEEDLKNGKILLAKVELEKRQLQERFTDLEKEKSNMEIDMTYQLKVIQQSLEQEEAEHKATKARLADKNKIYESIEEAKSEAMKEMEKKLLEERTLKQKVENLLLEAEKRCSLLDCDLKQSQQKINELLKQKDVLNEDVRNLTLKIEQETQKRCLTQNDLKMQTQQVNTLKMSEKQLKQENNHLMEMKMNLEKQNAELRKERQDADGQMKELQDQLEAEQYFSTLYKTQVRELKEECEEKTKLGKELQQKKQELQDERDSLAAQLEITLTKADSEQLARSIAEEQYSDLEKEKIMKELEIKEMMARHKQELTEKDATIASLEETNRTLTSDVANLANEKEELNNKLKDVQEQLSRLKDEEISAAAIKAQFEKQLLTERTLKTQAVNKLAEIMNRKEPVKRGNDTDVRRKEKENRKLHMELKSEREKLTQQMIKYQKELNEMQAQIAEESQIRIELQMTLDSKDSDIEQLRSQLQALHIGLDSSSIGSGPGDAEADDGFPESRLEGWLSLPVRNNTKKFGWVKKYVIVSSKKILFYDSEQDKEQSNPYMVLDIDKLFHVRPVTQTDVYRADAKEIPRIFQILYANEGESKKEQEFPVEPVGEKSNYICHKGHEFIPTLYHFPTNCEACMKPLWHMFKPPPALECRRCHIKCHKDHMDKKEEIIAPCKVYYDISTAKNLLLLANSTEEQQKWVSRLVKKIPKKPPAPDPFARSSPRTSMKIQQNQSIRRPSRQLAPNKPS", "UniProt Q6P087": "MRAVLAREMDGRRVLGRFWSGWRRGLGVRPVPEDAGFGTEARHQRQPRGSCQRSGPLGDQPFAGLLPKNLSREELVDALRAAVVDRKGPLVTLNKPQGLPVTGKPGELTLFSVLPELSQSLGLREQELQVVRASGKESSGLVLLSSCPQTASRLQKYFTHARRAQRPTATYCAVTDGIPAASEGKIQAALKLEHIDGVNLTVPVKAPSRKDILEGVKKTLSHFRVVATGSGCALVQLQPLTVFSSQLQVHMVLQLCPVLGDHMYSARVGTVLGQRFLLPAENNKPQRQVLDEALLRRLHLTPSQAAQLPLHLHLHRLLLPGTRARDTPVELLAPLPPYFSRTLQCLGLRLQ", "UniProt Q9BST9": "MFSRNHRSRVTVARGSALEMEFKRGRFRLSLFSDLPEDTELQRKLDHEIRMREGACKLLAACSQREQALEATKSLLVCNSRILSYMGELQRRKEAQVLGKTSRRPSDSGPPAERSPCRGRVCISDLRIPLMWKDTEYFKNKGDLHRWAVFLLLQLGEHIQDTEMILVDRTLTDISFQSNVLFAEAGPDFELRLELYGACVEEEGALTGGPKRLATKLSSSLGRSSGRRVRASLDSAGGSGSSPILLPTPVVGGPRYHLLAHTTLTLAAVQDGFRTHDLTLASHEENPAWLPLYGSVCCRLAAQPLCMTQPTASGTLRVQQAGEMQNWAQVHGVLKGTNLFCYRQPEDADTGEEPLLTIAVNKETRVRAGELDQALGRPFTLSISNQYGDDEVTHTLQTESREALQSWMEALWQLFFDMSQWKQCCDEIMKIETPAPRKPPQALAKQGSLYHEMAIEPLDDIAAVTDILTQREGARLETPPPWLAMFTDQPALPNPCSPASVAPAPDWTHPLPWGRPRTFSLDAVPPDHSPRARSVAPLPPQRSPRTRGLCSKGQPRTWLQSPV", "UniProt Q9NZ71": "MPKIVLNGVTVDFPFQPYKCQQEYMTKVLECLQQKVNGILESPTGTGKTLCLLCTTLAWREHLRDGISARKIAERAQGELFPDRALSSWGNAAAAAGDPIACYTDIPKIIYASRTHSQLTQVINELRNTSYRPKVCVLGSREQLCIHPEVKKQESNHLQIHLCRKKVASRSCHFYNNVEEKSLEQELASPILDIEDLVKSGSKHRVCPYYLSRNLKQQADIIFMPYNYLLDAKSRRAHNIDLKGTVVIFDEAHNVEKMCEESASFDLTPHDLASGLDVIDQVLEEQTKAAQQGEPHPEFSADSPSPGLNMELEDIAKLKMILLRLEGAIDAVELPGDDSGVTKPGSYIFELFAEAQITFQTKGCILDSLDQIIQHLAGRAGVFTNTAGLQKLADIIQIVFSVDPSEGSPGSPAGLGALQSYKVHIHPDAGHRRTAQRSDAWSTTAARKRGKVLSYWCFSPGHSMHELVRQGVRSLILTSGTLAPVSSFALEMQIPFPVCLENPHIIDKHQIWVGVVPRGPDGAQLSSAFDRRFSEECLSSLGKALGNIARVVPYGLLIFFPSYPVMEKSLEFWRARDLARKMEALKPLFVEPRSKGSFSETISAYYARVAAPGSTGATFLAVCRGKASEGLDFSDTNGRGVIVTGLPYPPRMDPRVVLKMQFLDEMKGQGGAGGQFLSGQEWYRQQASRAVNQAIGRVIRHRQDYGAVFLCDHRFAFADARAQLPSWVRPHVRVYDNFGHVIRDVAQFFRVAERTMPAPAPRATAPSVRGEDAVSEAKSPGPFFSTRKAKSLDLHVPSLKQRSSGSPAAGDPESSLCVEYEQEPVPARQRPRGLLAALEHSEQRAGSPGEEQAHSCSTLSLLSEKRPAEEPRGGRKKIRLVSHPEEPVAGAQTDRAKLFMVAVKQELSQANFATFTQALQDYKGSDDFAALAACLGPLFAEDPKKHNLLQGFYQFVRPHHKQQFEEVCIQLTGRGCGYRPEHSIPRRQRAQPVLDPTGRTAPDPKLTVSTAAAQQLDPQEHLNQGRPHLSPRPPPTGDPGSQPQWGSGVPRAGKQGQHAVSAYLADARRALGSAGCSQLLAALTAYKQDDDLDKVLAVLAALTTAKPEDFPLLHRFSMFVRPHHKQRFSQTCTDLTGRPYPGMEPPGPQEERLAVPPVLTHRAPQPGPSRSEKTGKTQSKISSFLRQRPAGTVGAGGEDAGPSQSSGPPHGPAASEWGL", "UniProt Q9BWH6, 166-191": "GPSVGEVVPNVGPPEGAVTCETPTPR", "UniProt P28702": "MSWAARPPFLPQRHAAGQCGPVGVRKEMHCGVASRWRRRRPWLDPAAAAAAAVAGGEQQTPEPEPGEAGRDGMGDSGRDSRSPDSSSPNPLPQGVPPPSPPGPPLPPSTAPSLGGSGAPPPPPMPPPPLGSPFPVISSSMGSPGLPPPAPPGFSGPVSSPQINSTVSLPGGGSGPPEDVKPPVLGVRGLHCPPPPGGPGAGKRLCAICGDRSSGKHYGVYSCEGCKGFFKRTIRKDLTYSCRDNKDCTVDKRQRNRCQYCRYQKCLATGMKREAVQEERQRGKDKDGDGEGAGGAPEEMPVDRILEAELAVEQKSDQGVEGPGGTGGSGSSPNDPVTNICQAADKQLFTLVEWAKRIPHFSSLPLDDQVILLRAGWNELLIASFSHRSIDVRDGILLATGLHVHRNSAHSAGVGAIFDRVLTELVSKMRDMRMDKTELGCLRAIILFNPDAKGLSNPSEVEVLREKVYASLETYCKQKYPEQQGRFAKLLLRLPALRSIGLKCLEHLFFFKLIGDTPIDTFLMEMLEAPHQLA", "UniProt Q9BY42": "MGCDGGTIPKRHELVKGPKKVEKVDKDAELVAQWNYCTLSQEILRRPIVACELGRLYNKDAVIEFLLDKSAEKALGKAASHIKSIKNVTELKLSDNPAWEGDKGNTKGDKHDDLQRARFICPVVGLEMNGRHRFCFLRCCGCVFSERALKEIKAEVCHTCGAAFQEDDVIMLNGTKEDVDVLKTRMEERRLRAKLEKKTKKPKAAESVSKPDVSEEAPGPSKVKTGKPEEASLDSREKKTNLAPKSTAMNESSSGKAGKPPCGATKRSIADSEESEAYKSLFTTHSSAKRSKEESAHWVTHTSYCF"}, "source": "the supplement of paper PMC11732987", "about": "“Enantioselective OTUD7B fragment discovery through chemoproteomics screening and high-throughput optimisation” (Communications Chemistry, 2025)", "key": {"[1]": {"compound": "ClCC(=O)N[C@@H]1CCCc2ccccc12", "assay": "log2 mean competition ratio of IA-DTB cysteine labelling (DMSO/compound) (log2 ratio); higher = stronger cysteine engagement by compound", "conditions": "treatment time: 4 h, cell line lysate: HEK293T", "protocol": "(§1)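 IA-DTB competitive cysteine chemoproteomics in HEK293T RIPA lysate. Lysates were treated with compound 29 or 30 at 50 or 200 µM for 4 h, then IA-DTB (500 µM, 1 h), trypsin-digested, NeutrAvidin-enriched and analysed by diaPASEF. Competition ratio = intensity DMSO / intensity compound (n=4 treated, n=64 DMSO); binding: mean log2 CR ≥ 1 and p ≤ 0.05 plus QC filters. Target is the cysteine site.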"}, "[2]": {"compound": "ClCC(=O)N[C@H]1CCCc2ccccc12", "assay": "log2 mean competition ratio of IA-DTB cysteine labelling (DMSO/compound) (log2 ratio); higher = stronger cysteine engagement by compound", "conditions": "treatment time: 4 h, cell line lysate: HEK293T", "protocol": "as §1"}}, "note": "This is one part of the list. The data scatter; read single values as rough."}
{"target": "RUFY1 C351 (UniProt Q96T51)", "values": [{"measurement": "log2 mean competition ratio", "setting": "[1]; 50 µM", "value": 0.243}, {"measurement": "log2 mean competition ratio", "setting": "[1]; 200 µM", "value": -0.205}, {"measurement": "log2 mean competition ratio", "setting": "[2]; 50 µM", "value": 0.173}, {"measurement": "log2 mean competition ratio", "setting": "[2]; 200 µM", "value": -0.317}]}
{"target": "RNF113A C202 (UniProt O15541)", "values": [{"measurement": "log2 mean competition ratio", "setting": "[1]; 50 µM", "value": 0.11}, {"measurement": "log2 mean competition ratio", "setting": "[1]; 200 µM", "value": 0.29}, {"measurement": "log2 mean competition ratio", "setting": "[2]; 50 µM", "value": -0.286}, {"measurement": "log2 mean competition ratio", "setting": "[2]; 200 µM", "value": 0.0103}]}
{"target": "RNF8 C300 (UniProt O76064)", "values": [{"measurement": "log2 mean competition ratio", "setting": "[1]; 50 µM", "value": -0.0686}, {"measurement": "log2 mean competition ratio", "setting": "[1]; 200 µM", "value": 0.0107}, {"measurement": "log2 mean competition ratio", "setting": "[2]; 50 µM", "value": -0.0706}, {"measurement": "log2 mean competition ratio", "setting": "[2]; 200 µM", "value": -0.0469}]}
{"target": "RPS6KC1 C733 (UniProt Q96S38)", "values": [{"measurement": "log2 mean competition ratio", "setting": "[1]; 200 µM", "value": 0.157}, {"measurement": "log2 mean competition ratio", "setting": "[2]; 50 µM", "value": 0.305}, {"measurement": "log2 mean competition ratio", "setting": "[2]; 200 µM", "value": 0.589}]}
{"target": "RPN2 C100 (UniProt P04844)", "values": [{"measurement": "log2 mean competition ratio", "setting": "[1]; 50 µM", "value": 0.77}, {"measurement": "log2 mean competition ratio", "setting": "[1]; 200 µM", "value": 0.492}, {"measurement": "log2 mean competition ratio", "setting": "[2]; 50 µM", "value": 0.134}, {"measurement": "log2 mean competition ratio", "setting": "[2]; 200 µM", "value": -0.523}]}
{"target": "RUFY1 C8 (UniProt Q96T51)", "values": [{"measurement": "log2 mean competition ratio", "setting": "[1]; 50 µM", "value": -0.189}, {"measurement": "log2 mean competition ratio", "setting": "[1]; 200 µM", "value": -0.037}, {"measurement": "log2 mean competition ratio", "setting": "[2]; 50 µM", "value": 0.156}, {"measurement": "log2 mean competition ratio", "setting": "[2]; 200 µM", "value": -0.0301}]}
{"target": "ROCK2 C1257 (UniProt O75116)", "values": [{"measurement": "log2 mean competition ratio", "setting": "[1]; 50 µM", "value": 0.0594}, {"measurement": "log2 mean competition ratio", "setting": "[1]; 200 µM", "value": -0.418}, {"measurement": "log2 mean competition ratio", "setting": "[2]; 50 µM", "value": 0.175}, {"measurement": "log2 mean competition ratio", "setting": "[2]; 200 µM", "value": -0.392}]}
{"target": "RPTOR C713 (UniProt Q8N122)", "values": [{"measurement": "log2 mean competition ratio", "setting": "[1]; 50 µM", "value": -0.08}, {"measurement": "log2 mean competition ratio", "setting": "[1]; 200 µM", "value": -0.0295}, {"measurement": "log2 mean competition ratio", "setting": "[2]; 50 µM", "value": 0.26}, {"measurement": "log2 mean competition ratio", "setting": "[2]; 200 µM", "value": 0.206}]}
{"target": "RPL10 C105", "values": [{"measurement": "log2 mean competition ratio", "setting": "[1]; 50 µM", "value": 0.111}, {"measurement": "log2 mean competition ratio", "setting": "[1]; 200 µM", "value": 0.295}, {"measurement": "log2 mean competition ratio", "setting": "[2]; 50 µM", "value": 0.142}, {"measurement": "log2 mean competition ratio", "setting": "[2]; 200 µM", "value": 0.182}]}
{"target": "RPL5 C76 (UniProt P46777)", "values": [{"measurement": "log2 mean competition ratio", "setting": "[1]; 50 µM", "value": 0.127}, {"measurement": "log2 mean competition ratio", "setting": "[1]; 200 µM", "value": -0.362}, {"measurement": "log2 mean competition ratio", "setting": "[2]; 50 µM", "value": -0.0653}, {"measurement": "log2 mean competition ratio", "setting": "[2]; 200 µM", "value": -0.468}]}
{"target": "RPUSD3 C147 (UniProt Q6P087)", "values": [{"measurement": "log2 mean competition ratio", "setting": "[1]; 50 µM", "value": 0.479}, {"measurement": "log2 mean competition ratio", "setting": "[1]; 200 µM", "value": 0.672}, {"measurement": "log2 mean competition ratio", "setting": "[2]; 50 µM", "value": 0.884}, {"measurement": "log2 mean competition ratio", "setting": "[2]; 200 µM", "value": 0.621}]}
{"target": "RPL12 C141 (UniProt P30050)", "values": [{"measurement": "log2 mean competition ratio", "setting": "[1]; 50 µM", "value": -0.145}, {"measurement": "log2 mean competition ratio", "setting": "[1]; 200 µM", "value": -0.194}, {"measurement": "log2 mean competition ratio", "setting": "[2]; 50 µM", "value": 0.193}, {"measurement": "log2 mean competition ratio", "setting": "[2]; 200 µM", "value": -0.234}]}
{"target": "RTN4 C912", "values": [{"measurement": "log2 mean competition ratio", "setting": "[1]; 50 µM", "value": -0.33}, {"measurement": "log2 mean competition ratio", "setting": "[1]; 200 µM", "value": -0.348}, {"measurement": "log2 mean competition ratio", "setting": "[2]; 50 µM", "value": 0.24}, {"measurement": "log2 mean competition ratio", "setting": "[2]; 200 µM", "value": -0.439}]}
{"target": "RPLP0 C27", "values": [{"measurement": "log2 mean competition ratio", "setting": "[1]; 50 µM", "value": 0.241}, {"measurement": "log2 mean competition ratio", "setting": "[1]; 200 µM", "value": -0.343}, {"measurement": "log2 mean competition ratio", "setting": "[2]; 50 µM", "value": 0.243}, {"measurement": "log2 mean competition ratio", "setting": "[2]; 200 µM", "value": -0.288}]}
{"target": "RTKN C78 (UniProt Q9BST9)", "values": [{"measurement": "log2 mean competition ratio", "setting": "[1]; 50 µM", "value": -0.0279}, {"measurement": "log2 mean competition ratio", "setting": "[1]; 200 µM", "value": -0.153}, {"measurement": "log2 mean competition ratio", "setting": "[2]; 50 µM", "value": 0.0701}, {"measurement": "log2 mean competition ratio", "setting": "[2]; 200 µM", "value": 0.00321}]}
{"target": "RTEL1 C537 (UniProt Q9NZ71)", "values": [{"measurement": "log2 mean competition ratio", "setting": "[1]; 50 µM", "value": 0.0974}, {"measurement": "log2 mean competition ratio", "setting": "[1]; 200 µM", "value": 0.063}, {"measurement": "log2 mean competition ratio", "setting": "[2]; 50 µM", "value": -0.265}, {"measurement": "log2 mean competition ratio", "setting": "[2]; 200 µM", "value": 0.0697}]}
{"target": "RNF19B C290", "values": [{"measurement": "log2 mean competition ratio", "setting": "[1]; 50 µM", "value": 0.165}, {"measurement": "log2 mean competition ratio", "setting": "[1]; 200 µM", "value": -0.0302}, {"measurement": "log2 mean competition ratio", "setting": "[2]; 50 µM", "value": -0.307}, {"measurement": "log2 mean competition ratio", "setting": "[2]; 200 µM", "value": -0.0495}]}
{"target": "RPAP1 C185 (UniProt Q9BWH6)", "values": [{"measurement": "log2 mean competition ratio", "setting": "[1]; 50 µM", "value": -0.404}, {"measurement": "log2 mean competition ratio", "setting": "[1]; 200 µM", "value": 0.189}, {"measurement": "log2 mean competition ratio", "setting": "[2]; 50 µM", "value": 0.166}, {"measurement": "log2 mean competition ratio", "setting": "[2]; 200 µM", "value": 0.144}]}
{"target": "RXRB C440 (UniProt P28702)", "values": [{"measurement": "log2 mean competition ratio", "setting": "[1]; 50 µM", "value": -0.0355}, {"measurement": "log2 mean competition ratio", "setting": "[1]; 200 µM", "value": 0.408}, {"measurement": "log2 mean competition ratio", "setting": "[2]; 50 µM", "value": -0.273}, {"measurement": "log2 mean competition ratio", "setting": "[2]; 200 µM", "value": 0.31}]}
{"target": "RTF2 C262 (UniProt Q9BY42)", "values": [{"measurement": "log2 mean competition ratio", "setting": "[1]; 50 µM", "value": 0.33}, {"measurement": "log2 mean competition ratio", "setting": "[1]; 200 µM", "value": -0.37}, {"measurement": "log2 mean competition ratio", "setting": "[2]; 50 µM", "value": 0.363}, {"measurement": "log2 mean competition ratio", "setting": "[2]; 200 µM", "value": -0.211}]}
{"target": "RRM1 C779 (UniProt P23921)", "values": [{"measurement": "log2 mean competition ratio", "setting": "[1]; 50 µM", "value": -0.0747}, {"measurement": "log2 mean competition ratio", "setting": "[1]; 200 µM", "value": 0.236}, {"measurement": "log2 mean competition ratio", "setting": "[2]; 50 µM", "value": -0.249}, {"measurement": "log2 mean competition ratio", "setting": "[2]; 200 µM", "value": 0.0761}]}
{"target": "RXRB C191 (UniProt P28702)", "values": [{"measurement": "log2 mean competition ratio", "setting": "[1]; 50 µM", "value": 0.398}, {"measurement": "log2 mean competition ratio", "setting": "[1]; 200 µM", "value": -0.452}, {"measurement": "log2 mean competition ratio", "setting": "[2]; 50 µM", "value": 0.482}, {"measurement": "log2 mean competition ratio", "setting": "[2]; 200 µM", "value": -0.209}]}
{"target": "RRM1 C492 (UniProt P23921)", "values": [{"measurement": "log2 mean competition ratio", "setting": "[1]; 50 µM", "value": -0.0473}, {"measurement": "log2 mean competition ratio", "setting": "[1]; 200 µM", "value": -0.133}, {"measurement": "log2 mean competition ratio", "setting": "[2]; 50 µM", "value": -0.141}, {"measurement": "log2 mean competition ratio", "setting": "[2]; 200 µM", "value": -0.24}]}
